From the supplement of paper PMC6411743
± gives the standard deviation of the averaged measurements. The list shows a part of the results.

By UniProt entry, the sequences of proteins in these tests, tags left out. Where a name states a change or a piece, a line headed by the entry shows the natural chain unless it says otherwise.
UniProt O95249: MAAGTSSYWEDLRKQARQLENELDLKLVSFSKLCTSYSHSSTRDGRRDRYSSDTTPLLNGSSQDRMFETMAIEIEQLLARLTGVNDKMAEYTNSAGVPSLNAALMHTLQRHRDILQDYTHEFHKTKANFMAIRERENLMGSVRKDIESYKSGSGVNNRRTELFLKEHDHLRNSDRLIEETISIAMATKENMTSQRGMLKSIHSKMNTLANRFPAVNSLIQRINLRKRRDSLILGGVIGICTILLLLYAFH
UniProt P52566: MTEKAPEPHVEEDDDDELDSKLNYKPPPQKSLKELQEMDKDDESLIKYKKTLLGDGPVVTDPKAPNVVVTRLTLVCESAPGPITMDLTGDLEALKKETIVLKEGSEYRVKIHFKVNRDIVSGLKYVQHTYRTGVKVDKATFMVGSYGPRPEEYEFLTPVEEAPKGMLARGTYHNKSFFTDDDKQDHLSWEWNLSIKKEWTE
UniProt Q96MG8: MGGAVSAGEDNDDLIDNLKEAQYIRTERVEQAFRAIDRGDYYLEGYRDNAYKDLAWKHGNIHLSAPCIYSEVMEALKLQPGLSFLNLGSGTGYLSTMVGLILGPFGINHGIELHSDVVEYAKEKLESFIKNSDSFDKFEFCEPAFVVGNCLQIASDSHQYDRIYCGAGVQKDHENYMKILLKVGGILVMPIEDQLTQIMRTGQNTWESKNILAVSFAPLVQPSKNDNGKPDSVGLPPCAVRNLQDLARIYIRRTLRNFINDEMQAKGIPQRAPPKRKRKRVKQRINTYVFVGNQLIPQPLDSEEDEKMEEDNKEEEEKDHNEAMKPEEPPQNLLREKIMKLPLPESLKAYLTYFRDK
UniProt P20936: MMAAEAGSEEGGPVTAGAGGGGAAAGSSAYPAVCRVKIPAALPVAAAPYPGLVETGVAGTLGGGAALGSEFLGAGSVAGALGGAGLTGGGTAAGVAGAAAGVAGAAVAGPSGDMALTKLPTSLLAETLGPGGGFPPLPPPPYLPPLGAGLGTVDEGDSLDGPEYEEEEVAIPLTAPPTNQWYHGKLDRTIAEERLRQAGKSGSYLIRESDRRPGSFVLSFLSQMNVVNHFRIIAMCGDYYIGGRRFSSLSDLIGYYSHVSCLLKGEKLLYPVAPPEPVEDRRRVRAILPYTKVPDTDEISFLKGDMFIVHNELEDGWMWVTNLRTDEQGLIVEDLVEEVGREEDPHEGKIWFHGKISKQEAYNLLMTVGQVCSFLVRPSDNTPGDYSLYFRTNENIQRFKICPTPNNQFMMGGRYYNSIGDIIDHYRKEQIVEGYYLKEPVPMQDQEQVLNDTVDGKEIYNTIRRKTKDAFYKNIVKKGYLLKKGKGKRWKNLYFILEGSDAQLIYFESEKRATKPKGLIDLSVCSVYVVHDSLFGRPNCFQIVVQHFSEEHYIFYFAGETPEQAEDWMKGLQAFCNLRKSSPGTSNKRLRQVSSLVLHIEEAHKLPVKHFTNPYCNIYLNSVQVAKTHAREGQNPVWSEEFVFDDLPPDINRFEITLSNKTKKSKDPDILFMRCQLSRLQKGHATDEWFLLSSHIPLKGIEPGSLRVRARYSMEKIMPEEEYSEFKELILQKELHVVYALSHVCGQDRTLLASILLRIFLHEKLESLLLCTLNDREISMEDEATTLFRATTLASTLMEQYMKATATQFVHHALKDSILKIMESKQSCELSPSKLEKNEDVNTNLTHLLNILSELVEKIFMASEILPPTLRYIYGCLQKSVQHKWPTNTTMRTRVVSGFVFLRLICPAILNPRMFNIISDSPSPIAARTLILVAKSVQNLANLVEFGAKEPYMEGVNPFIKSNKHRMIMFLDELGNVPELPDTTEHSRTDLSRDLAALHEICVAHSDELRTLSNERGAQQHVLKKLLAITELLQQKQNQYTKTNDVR
UniProt Q9Y485, whole entry: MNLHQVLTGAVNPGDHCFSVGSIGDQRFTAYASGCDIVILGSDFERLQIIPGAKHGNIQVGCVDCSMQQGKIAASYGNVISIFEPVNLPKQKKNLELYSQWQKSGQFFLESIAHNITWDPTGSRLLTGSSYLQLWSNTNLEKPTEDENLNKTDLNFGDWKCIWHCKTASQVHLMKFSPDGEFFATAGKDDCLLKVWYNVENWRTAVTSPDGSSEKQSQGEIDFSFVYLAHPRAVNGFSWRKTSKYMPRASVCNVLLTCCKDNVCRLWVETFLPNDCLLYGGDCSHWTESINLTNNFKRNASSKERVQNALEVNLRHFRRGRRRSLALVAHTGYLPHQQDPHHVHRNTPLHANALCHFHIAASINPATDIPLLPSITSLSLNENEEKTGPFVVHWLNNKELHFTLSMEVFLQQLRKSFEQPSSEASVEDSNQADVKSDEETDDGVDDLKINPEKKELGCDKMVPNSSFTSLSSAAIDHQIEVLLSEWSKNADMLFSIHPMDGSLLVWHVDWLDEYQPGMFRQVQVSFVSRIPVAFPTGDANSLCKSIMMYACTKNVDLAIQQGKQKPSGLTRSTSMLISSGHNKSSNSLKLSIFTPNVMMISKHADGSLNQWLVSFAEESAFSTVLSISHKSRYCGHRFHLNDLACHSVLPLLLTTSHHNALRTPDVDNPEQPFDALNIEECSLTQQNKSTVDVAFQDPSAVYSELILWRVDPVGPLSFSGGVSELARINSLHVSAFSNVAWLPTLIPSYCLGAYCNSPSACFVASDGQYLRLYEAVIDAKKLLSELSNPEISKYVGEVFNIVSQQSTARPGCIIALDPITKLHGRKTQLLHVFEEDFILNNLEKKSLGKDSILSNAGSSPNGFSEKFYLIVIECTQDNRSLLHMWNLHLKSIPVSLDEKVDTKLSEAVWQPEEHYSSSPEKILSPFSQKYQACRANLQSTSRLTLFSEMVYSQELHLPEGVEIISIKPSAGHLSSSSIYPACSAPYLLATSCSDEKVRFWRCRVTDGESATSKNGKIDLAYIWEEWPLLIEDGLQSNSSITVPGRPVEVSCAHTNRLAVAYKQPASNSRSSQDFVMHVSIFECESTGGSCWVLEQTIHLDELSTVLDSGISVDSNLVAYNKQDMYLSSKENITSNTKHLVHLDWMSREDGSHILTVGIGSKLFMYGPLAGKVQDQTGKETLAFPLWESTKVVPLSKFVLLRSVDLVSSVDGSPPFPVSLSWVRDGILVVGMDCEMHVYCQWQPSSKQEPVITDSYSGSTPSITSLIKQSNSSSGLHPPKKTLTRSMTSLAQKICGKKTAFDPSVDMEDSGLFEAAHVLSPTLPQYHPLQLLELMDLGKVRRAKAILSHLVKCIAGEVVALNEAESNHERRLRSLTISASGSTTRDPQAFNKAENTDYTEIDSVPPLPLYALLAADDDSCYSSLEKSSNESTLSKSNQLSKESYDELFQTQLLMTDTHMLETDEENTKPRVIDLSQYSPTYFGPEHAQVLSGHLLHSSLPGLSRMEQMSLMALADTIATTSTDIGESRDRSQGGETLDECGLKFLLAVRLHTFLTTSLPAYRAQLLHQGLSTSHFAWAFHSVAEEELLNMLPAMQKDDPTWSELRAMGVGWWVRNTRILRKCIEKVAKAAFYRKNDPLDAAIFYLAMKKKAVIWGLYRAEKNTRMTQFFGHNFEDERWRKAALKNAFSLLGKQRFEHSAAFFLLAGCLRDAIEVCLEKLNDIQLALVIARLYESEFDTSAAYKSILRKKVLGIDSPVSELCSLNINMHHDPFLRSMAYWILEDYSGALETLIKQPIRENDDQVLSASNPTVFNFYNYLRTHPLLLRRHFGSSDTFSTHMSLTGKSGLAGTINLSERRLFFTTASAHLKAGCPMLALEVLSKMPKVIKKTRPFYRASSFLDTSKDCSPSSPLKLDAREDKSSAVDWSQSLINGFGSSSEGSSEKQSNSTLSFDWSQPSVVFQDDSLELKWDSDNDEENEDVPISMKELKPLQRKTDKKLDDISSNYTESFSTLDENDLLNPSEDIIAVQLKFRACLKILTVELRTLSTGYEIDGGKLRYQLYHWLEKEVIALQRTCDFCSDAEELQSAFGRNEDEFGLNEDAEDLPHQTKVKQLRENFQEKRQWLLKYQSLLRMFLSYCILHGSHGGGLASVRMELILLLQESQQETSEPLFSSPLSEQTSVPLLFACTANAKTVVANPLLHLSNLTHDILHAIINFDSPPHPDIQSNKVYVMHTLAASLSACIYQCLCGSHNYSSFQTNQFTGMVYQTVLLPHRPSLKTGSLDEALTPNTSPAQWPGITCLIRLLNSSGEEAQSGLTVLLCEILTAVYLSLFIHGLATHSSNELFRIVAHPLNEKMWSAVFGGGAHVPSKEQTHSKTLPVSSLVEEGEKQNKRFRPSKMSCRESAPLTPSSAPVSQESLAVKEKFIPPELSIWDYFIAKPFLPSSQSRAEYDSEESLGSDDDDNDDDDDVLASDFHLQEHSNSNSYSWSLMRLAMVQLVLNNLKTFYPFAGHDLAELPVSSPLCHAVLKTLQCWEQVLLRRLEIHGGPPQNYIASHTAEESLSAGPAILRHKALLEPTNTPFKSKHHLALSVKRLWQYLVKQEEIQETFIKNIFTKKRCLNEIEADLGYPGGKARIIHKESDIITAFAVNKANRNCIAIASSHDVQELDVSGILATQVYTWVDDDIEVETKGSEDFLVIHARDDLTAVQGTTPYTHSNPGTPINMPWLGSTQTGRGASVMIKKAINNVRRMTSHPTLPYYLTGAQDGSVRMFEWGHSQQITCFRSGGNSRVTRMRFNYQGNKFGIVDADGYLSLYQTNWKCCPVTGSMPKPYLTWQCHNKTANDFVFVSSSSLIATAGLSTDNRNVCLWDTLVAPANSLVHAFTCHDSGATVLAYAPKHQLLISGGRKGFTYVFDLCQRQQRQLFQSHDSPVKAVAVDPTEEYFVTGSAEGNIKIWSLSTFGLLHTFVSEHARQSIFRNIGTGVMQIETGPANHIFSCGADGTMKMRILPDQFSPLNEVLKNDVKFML
UniProt Q9Y6M9, whole entry: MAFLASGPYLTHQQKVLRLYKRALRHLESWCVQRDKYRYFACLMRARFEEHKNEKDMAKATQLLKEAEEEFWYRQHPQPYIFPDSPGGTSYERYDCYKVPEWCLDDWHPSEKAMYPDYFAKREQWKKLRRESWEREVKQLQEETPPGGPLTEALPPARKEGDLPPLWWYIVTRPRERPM
UniProt Q15436: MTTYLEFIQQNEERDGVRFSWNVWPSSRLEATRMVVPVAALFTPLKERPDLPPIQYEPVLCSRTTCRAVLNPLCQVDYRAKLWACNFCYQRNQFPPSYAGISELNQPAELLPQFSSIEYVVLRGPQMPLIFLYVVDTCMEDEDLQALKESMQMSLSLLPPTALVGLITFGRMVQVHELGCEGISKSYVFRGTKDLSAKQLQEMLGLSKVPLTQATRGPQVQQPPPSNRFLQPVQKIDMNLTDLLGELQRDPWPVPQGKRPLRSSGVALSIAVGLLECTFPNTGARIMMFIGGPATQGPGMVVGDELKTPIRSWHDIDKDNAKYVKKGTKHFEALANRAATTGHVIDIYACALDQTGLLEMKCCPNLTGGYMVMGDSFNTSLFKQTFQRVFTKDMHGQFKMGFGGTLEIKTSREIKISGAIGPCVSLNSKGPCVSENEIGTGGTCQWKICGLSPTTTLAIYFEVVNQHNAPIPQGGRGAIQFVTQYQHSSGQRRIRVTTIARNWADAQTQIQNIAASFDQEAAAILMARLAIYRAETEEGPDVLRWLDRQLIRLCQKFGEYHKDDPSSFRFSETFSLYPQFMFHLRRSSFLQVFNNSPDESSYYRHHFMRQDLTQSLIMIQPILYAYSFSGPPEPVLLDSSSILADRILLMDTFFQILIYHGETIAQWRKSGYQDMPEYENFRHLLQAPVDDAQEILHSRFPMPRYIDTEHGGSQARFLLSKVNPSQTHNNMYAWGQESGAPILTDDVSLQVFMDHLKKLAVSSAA
UniProt Q9NZJ0: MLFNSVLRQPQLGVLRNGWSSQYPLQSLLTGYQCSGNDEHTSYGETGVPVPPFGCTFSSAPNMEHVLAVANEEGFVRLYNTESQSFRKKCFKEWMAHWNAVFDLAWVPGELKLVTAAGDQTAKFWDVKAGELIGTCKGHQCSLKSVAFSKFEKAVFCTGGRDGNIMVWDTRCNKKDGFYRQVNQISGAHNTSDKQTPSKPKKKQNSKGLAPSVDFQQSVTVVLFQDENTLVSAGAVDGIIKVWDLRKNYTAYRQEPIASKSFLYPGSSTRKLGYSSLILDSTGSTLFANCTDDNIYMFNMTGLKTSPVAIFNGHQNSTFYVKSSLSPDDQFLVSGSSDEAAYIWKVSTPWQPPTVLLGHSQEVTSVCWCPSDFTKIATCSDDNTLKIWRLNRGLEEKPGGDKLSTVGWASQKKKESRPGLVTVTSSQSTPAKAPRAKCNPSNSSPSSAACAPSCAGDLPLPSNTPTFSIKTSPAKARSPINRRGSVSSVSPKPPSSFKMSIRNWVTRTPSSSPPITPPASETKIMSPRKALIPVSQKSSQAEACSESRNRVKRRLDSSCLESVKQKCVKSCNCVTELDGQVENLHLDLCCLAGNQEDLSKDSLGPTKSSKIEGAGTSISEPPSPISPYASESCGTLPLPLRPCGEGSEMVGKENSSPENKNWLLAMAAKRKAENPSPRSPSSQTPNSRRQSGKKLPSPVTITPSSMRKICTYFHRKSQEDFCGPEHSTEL

compound: Nc1nc2c(ncn2[C@@H]2O[C@H](COP(=O)(O)OP(=O)(O)OP(=O)(O)O)[C@@H](O)[C@H]2O)c(=O)[nH]1 [guanosine triphosphate]; test: NP40-soluble protein abundance relative to vehicle (solubility fold change) (ratio); higher = more soluble protein in presence of GTP; settings: concentration: 0.1mM
Summary of the method: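 Across three independent experiments, values are fold changes against the detergent-processed vehicle for each replicate, based on vsn-normalised intensities. The samples were Jurkat crude lysate treated with eight concentrations (0.1 to 10 mM) for 10 min at room temperature and then 3 min at 37 °C. Lysate was solubilised with 0.8% NP40 and benzonase, ultracentrifuged, and the supernatant analysed by TMT-labelled LC-MS/MS.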

| Target | NP40-soluble protein abundance |
| --- | --- |
| E9PCW1 and related entries (UniProt O95249) | 0.877 ± 0.026 |
| E7EPT4 and related entries (UniProt P19404) | 0.959 ± 0.12 |
| F5GZZ0 and related entries (UniProt Q6NS38) | 0.99515 ± 0.00044 |
| E7ESS2 and related entries (UniProt O95819) | 0.979 ± 0.061 |
| F5H2R5 and related entries (UniProt P52566) | 0.962 ± 0.025 |
| E9PMI6 and related entries (UniProt P54105) | 0.987 ± 0.032 |
| F5H1M8 and related entries (UniProt Q96MG8) | 0.938 ± 0.035 |
| E7ESG2 and related entries (UniProt Q9HAW4) | 1.04 ± 0.056 |
| E7ETP9 and related entries (UniProt Q9UQV4) | 0.882 ± 0.15 |
| E9PCG9 and related entries (UniProt Q02338) | 1.07 ± 0.039 |
| F8VV56 and related entries (UniProt P08962) | 0.872 ± 0.022 |
| E9PGC0 and related entries (UniProt P20936) | 1.05 ± 0.069 |
| F5H269 and related entries (UniProt Q9Y485) | 0.991 ± 0.013 |
| F5GZG1 and related entries (UniProt P61224) | 0.897 ± 0.16 |
| F5GWJ6 and related entries (UniProt Q9H3J6) | 0.955 ± 0.11 |
| E9PH64 and related entries (UniProt Q9Y6M9) | 1.02 ± 0.14 |
| F8W8C2 and related entries (UniProt Q9HBM0) | 0.869 ± 0.14 |
| E9PKV2 and related entries (UniProt Q9NRX2) | 1.04 ± 0.22 |
| F5H365 and related entries (UniProt Q15436) | 1.02 ± 0.012 |

| Target | NP40-soluble protein abundance |
| --- | --- |
| F6V2D4 and related entries (UniProt O00214) | 1.06 ± 0.11 |
| F2Z2W7 and related entries (UniProt Q8IZ69) | 1.06 ± 0.016 |
| E7ERS3 and related entries (UniProt Q86VM9) | 0.983 ± 0.031 |
| G3V502 and related entries (UniProt Q9Y5J7) | 1.047 ± 0.0099 |
| F8WDV0 and related entries (UniProt Q9UI26) | 1.21 ± 0.17 |
| G3XAI9 and related entries (UniProt Q5BKY9) | 0.887 ± 0.087 |
| UniProt E9PSI1 | 1 ± 0.09 |
| F8WCU9 and related entries (UniProt Q68CP9) | 1.03 ± 0.015 |
| F8VZA0 and related entries (UniProt Q9H0K6) | 1.03 ± 0.023 |
| E9PK57 and related entries (UniProt O94830) | 1.03 ± 0.047 |
| E9PHH9 and related entries (UniProt Q9BUI4) | 1.05 ± 0.019 |
| F8VQE1 and related entries (UniProt Q9UHB6) | 0.977 ± 0.045 |
| E9PI30 and related entries (UniProt P56202) | 0.976 ± 0.083 |
| F5GZ90 and related entries (UniProt Q9NZJ0) | 1.06 ± 0.047 |
| F8W8G5 and related entries (UniProt P10242) | 1.02 ± 0.063 |
| E7EWW0 and related entries (UniProt Q7Z3J2) | 1.09 ± 0.013 |
| E7EPD8 and related entries (UniProt Q9NUW8) | 1.01 ± 0.052 |
| E9PEL3 and related entries (UniProt P61513) | 1.03 ± 0.041 |

same assay, conditions: concentration: 0.5mM

| Target | NP40-soluble protein abundance |
| --- | --- |
| E9PCW1 and related entries (UniProt O95249) | 0.954 ± 0.029 |
| E7EPT4 and related entries (UniProt P19404) | 0.932 ± 0.12 |
| F5GZZ0 and related entries (UniProt Q6NS38) | 0.947 ± 0.015 |
| E7ESS2 and related entries (UniProt O95819) | 1.01 ± 0.07 |
| F5H2R5 and related entries (UniProt P52566) | 0.979 ± 0.026 |
| E9PMI6 and related entries (UniProt P54105) | 0.914 ± 0.04 |
| F5H1M8 and related entries (UniProt Q96MG8) | 0.906 ± 0.027 |
| E7ESG2 and related entries (UniProt Q9HAW4) | 1.02 ± 0.059 |
| E7ETP9 and related entries (UniProt Q9UQV4) | 0.796 ± 0.068 |
| E9PCG9 and related entries (UniProt Q02338) | 1.1 ± 0.063 |
| F8VV56 and related entries (UniProt P08962) | 0.82 ± 0.085 |
| E9PGC0 and related entries (UniProt P20936) | 1.04 ± 0.091 |
| F5H269 and related entries (UniProt Q9Y485) | 1.11 ± 0.081 |
| F5GZG1 and related entries (UniProt P61224) | 0.931 ± 0.16 |
| F5GWJ6 and related entries (UniProt Q9H3J6) | 0.97 ± 0.081 |
| E9PH64 and related entries (UniProt Q9Y6M9) | 0.987 ± 0.088 |
| F8W8C2 and related entries (UniProt Q9HBM0) | 0.967 ± 0.095 |
| E9PKV2 and related entries (UniProt Q9NRX2) | 1.04 ± 0.14 |
| F5H365 and related entries (UniProt Q15436) | 1.03 ± 0.047 |

| Target | NP40-soluble protein abundance |
| --- | --- |
| F6V2D4 and related entries (UniProt O00214) | 1.05 ± 0.069 |
| F2Z2W7 and related entries (UniProt Q8IZ69) | 1.07 ± 0.057 |
| E7ERS3 and related entries (UniProt Q86VM9) | 1.005 ± 0.0053 |
| G3V502 and related entries (UniProt Q9Y5J7) | 1.01 ± 0.12 |
| F8WDV0 and related entries (UniProt Q9UI26) | 1.05 ± 0.1 |
| G3XAI9 and related entries (UniProt Q5BKY9) | 0.888 ± 0.084 |
| UniProt E9PSI1 | 1.03 ± 0.14 |
| F8WCU9 and related entries (UniProt Q68CP9) | 1.09 ± 0.024 |
| F8VZA0 and related entries (UniProt Q9H0K6) | 1.02 ± 0.015 |
| E9PK57 and related entries (UniProt O94830) | 1.09 ± 0.081 |
| E9PHH9 and related entries (UniProt Q9BUI4) | 1.01 ± 0.019 |
| F8VQE1 and related entries (UniProt Q9UHB6) | 0.955 ± 0.12 |
| E9PI30 and related entries (UniProt P56202) | 1.01 ± 0.08 |
| F5GZ90 and related entries (UniProt Q9NZJ0) | 1.06 ± 0.1 |
| F8W8G5 and related entries (UniProt P10242) | 1.04 ± 0.077 |
| E7EWW0 and related entries (UniProt Q7Z3J2) | 1.07 ± 0.037 |
| E7EPD8 and related entries (UniProt Q9NUW8) | 0.997 ± 0.021 |
| E9PEL3 and related entries (UniProt P61513) | 0.979 ± 0.07 |
